According to patent US8222202B2 (priority 2006, dated 2012):

How the values were obtained:
[1] = Boc solid-phase peptide synthesis; 4-methyl-benzhydrylamine resin; DIC/HOBt (compound 1); DCC, PyBOP or DIC/HOBt (compound 4); conditions: whole synthesis, scale 0.4 mmol
[2] = general procedure: peptide synthesis; Tentagel-S-RAM resin (compound 1); 4-methyl-benzhydrylamine resin (compound 4); DIC/HOBt (compound 1); DCC, PyBOP or DIC/HOBt (compound 4); conditions: whole synthesis, Analytical HPLC, Vydac C18, scale of the general procedure 0.5 mmol (compound 1), 0.4 mmol (compound 4)
[3] = Fmoc solid-phase peptide synthesis; Tentagel-S-RAM; DIC/HOBt (compound 1); DCC, PyBOP or DIC/HOBt (compound 4); conditions: whole synthesis, scale 0.5 mmol, acetate

Substance	isolated yield [1]	isolated mass ([1]; acetate)	final HPLC purity [2]	isolated mass [3]
[Phe^2,Asn(Et)^4, Dbu^8]VT	˜10%	41 mg	100%	–
[Phe^2,Hgn^4,Orn(i-Pr)^8]VT	–	–	98.8%	168 mg
